Laboratory results as given in patent publication US20080213860.
Changes are numbered by the printed parent chain. The exact form of at least one protein or probe is not confirmed. Tags and fusion partners may be left off the protein sequences shown.

Legend:
Assay in all cases: enzyme reaction in vitro
[1] = test system: T1, BsmI restriction endonuclease (wild-type) (Bacillus stearothermophilus NUB36); details: linearizes pBR322 (ds-DNA cleavage); purified recombinant protein; only the site is given
T1 sequence: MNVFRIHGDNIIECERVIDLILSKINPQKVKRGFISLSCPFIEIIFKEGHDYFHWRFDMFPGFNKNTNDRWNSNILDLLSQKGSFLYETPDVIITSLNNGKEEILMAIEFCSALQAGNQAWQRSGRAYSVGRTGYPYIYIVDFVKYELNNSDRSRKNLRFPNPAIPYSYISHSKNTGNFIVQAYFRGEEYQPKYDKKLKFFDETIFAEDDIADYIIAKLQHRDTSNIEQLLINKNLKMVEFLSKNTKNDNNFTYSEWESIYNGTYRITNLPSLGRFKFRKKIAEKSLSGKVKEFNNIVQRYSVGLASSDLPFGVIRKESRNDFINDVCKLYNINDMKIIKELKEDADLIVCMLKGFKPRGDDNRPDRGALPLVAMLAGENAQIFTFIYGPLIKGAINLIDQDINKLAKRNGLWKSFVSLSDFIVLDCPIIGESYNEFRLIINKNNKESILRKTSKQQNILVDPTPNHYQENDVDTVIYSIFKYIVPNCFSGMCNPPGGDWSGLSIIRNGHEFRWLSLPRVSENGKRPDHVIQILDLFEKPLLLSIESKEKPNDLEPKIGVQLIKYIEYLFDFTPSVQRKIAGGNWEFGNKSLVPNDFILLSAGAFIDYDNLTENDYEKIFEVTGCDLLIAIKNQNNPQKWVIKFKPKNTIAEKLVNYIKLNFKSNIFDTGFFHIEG

[2] = test system: T2, BsmI R578D (Bacillus stearothermophilus NUB36); details: ds-DNA cleavage; protein in an extract; only the site is given
T2 sequence: T1 sequence with R578D

[3] = test system: T3, BsmI R16D (Bacillus stearothermophilus NUB36); details: ds-DNA cleavage; protein in an extract; only the site is given
T3 sequence: T1 sequence with R16D

[4] = test system: T4, BsmI R222D (Bacillus stearothermophilus NUB36); details: ds-DNA cleavage; protein in an extract; only the site is given
T4 sequence: T1 sequence with R222D

Measured: activity on this sequence

GCATTC [pBR322 supercoiled plasmid (one BsmI site)]
active: all assays above
